# Assay results reported in paper PMC5622495.
# The chains behind the UniProt entries cited, without tags or fusion partners.
# UniProt Q6W2J9: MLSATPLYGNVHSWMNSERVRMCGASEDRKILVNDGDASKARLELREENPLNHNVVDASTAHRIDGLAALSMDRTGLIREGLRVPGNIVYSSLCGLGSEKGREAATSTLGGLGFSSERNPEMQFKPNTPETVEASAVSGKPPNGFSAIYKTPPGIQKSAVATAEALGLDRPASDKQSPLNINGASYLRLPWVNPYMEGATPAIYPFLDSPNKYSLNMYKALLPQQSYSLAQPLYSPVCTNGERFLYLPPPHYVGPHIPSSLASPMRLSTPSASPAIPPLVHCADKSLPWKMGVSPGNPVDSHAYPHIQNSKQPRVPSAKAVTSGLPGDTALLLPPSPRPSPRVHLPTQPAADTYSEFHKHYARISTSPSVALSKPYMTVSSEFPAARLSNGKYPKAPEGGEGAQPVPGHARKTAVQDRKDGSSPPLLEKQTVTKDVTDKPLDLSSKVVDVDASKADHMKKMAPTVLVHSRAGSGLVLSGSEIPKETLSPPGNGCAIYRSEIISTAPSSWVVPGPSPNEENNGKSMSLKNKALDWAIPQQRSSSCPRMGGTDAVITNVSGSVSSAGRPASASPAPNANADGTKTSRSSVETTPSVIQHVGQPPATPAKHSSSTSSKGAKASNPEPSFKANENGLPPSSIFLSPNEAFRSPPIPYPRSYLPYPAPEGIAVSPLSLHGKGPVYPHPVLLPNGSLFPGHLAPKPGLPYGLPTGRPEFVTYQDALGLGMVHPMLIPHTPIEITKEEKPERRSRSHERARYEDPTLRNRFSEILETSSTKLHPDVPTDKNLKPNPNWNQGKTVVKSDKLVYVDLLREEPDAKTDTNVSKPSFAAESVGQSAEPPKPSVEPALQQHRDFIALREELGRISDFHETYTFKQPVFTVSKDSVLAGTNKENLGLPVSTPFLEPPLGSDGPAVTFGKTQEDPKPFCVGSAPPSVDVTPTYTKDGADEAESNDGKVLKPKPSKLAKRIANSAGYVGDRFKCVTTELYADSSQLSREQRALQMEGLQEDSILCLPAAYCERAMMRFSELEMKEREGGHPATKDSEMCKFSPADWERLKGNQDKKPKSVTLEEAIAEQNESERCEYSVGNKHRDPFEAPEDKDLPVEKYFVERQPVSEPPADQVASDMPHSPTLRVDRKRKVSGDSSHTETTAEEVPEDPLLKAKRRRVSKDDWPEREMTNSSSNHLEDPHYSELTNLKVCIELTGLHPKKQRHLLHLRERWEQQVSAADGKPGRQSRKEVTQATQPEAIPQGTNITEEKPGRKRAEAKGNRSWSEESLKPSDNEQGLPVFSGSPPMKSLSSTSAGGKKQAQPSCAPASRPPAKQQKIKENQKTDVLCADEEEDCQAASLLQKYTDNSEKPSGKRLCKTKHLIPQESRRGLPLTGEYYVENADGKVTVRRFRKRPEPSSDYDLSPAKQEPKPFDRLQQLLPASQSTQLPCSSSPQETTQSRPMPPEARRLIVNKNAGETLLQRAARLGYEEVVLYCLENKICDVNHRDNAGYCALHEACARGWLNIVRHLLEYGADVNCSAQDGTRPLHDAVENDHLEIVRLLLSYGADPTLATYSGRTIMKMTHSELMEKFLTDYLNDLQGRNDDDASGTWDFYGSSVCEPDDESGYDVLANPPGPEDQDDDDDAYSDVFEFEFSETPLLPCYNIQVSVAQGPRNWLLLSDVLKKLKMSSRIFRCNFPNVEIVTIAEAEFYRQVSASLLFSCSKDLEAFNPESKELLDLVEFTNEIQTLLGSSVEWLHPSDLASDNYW
# UniProt O15054: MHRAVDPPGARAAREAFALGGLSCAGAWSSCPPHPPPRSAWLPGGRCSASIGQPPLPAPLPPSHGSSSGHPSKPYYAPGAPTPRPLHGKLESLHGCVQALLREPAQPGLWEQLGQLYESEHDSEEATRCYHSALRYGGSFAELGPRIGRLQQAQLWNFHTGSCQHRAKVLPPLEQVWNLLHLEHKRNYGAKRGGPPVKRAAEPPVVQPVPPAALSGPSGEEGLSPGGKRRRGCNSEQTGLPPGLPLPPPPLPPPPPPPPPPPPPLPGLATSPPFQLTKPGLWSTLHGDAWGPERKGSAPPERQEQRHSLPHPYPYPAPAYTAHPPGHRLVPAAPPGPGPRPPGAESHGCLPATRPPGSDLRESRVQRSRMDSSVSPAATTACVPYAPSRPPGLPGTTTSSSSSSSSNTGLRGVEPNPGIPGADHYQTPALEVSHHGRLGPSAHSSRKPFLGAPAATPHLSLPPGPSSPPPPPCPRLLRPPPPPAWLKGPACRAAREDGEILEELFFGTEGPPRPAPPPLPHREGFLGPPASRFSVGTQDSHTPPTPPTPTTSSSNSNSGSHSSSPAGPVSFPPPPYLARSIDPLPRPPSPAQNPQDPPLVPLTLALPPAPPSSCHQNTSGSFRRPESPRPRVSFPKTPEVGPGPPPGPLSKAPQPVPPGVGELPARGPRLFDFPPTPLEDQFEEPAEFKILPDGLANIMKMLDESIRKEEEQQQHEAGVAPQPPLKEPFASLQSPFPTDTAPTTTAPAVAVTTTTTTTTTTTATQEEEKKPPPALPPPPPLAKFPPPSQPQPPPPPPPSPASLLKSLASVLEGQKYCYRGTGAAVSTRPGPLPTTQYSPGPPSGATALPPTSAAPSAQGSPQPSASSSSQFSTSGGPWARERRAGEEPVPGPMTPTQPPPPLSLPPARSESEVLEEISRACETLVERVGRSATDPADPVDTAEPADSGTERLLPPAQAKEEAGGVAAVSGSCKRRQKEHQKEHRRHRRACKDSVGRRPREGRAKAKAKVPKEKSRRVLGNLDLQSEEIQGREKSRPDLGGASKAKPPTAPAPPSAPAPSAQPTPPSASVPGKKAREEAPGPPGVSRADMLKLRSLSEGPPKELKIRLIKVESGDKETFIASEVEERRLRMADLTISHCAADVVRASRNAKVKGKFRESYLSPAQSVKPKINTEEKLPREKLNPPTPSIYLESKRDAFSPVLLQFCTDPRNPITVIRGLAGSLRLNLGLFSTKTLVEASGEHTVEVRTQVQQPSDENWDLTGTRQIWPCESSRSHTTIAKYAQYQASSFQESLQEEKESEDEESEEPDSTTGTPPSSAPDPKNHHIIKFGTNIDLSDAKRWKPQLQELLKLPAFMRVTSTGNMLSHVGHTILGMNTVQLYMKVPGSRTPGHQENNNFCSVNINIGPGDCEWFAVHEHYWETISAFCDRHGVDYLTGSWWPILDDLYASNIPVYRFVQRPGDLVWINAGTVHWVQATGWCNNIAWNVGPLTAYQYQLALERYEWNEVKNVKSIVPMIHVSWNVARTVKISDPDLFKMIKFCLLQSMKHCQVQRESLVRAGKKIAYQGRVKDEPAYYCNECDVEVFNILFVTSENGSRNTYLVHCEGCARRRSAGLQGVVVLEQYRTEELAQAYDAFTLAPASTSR
# No constants are given. Whether binding was seen depends on the method and setting. Binding seen in cells or lysates may run through a third protein. Some entries that bind do so weakly or less than the wild type.
# Target: HA-BCOR (human full-length BCL6 co-repressor with an HA tag) (human) (UniProt Q6W2J9)
# Experiment: co-IP; HA-BCOR-transduced PDLSCs lysed in cold RIPA buffer; anti-HA agarose (HA-Tag Co-IP kit), 4 °C at least 1 hour, TBS-T washes; Western blot for KDM6B
substance,measurement,value
lysine (K)-specific demethylase 6B (KDM6B) (from UniProt O15054 1-1643),binding,binds
